# Measurements taken from the supplement of paper PMC8728848.
# The other results are listed elsewhere or left out.
# Key:
# Assay in all cases: glycan array binding signal (z-score within array); higher = stronger binding
# Conditions in all cases: glycan notation: IUPAC condensed, linker removed
# [1] = target: Fuc(a1-2)[Gal(a1-3)]Gal(b1-4)GlcNAc(b1-2)Man(a1-3)[Fuc(a1-2)[Gal(a1-3)]Gal(b1-4)GlcNAc(b1-2)Man(a1-6)]Man(b1-4)GlcNAc(b1-4)GlcNAc
# In short: (§1)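 From the Consortium for Functional Glycomics database, 3228 arrays were curated, keeping only those whose protein sequence was available. Binding is given as a within-array Z-score averaged across arrays sharing a protein sequence and across linkers. Negative Z-scores can be read as non-binding.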
# [2] = target: Fuc(a1-2)[Gal(a1-3)]Gal(b1-4)GlcNAc(b1-2)Man(a1-3)[Fuc(a1-2)[Gal(a1-3)]Gal(b1-4)GlcNAc(b1-2)Man(a1-6)]Man(b1-4)GlcNAc(b1-4)[Fuc(a1-6)]GlcNAc
# In short: as §1
# [3] = target: Fuc(a1-2)[Gal(a1-3)]Gal(b1-4)GlcNAc(b1-3)GalNAc
# In short: as §1
# [4] = target: Fuc(a1-2)[Gal(a1-3)]Gal(b1-4)GlcNAc(b1-3)[Fuc(a1-2)[Gal(a1-3)]Gal(b1-4)GlcNAc(b1-6)]GalNAc
# In short: as §1
# [5] = target: Fuc(a1-2)[Gal(a1-3)]Gal(b1-4)GlcNAc(b1-6)GalNAc
# In short: as §1
# [6] = target: Fuc(a1-2)[Gal(a1-3)]Gal(b1-4)[Fuc(a1-3)]Glc
# In short: as §1
# [7] = target: Fuc(a1-2)[Gal(a1-3)]Gal(b1-4)[Fuc(a1-3)]GlcNAc
# In short: as §1
# [8] = target: Fuc(a1-2)[Gal(a1-3)]Gal(b1-4)[Fuc(a1-3)]GlcNAc(b1-3)GalNAc
# In short: as §1
# [9] = target: Fuc(a1-2)[Gal(a1-4)]Gal(b1-4)GlcNAc
# In short: as §1
# [10] = target: Fuc(a1-2)[GalNAc(a1-3)]Gal
# In short: as §1
# [11] = target: Fuc(a1-2)[GalNAc(a1-3)]Gal(b1-3)GalNAc(a1-3)[Fuc(a1-2)]Gal(b1-4)GlcNAc
# In short: as §1
# [12] = target: Fuc(a1-2)[GalNAc(a1-3)]Gal(b1-3)GalNAc(b1-3)Gal(a1-4)Gal(b1-4)Glc
# In short: as §1
# [13] = target: Fuc(a1-2)[GalNAc(a1-3)]Gal(b1-3)GlcNAc
# In short: as §1
# [14] = target: Fuc(a1-2)[GalNAc(a1-3)]Gal(b1-3)GlcNAc(b1-2)Man(a1-3)[Fuc(a1-2)[GalNAc(a1-3)]Gal(b1-3)GlcNAc(b1-2)Man(a1-6)]Man(b1-4)GlcNAc(b1-4)GlcNAc
# In short: as §1
# [15] = target: Fuc(a1-2)[GalNAc(a1-3)]Gal(b1-3)GlcNAc(b1-2)Man(a1-3)[Fuc(a1-2)[GalNAc(a1-3)]Gal(b1-3)GlcNAc(b1-2)Man(a1-6)]Man(b1-4)GlcNAc(b1-4)[Fuc(a1-6)]GlcNAc
# In short: as §1
# [16] = target: Fuc(a1-2)[GalNAc(a1-3)]Gal(b1-3)GlcNAc(b1-3)GalNAc
# In short: as §1
# [17] = target: Fuc(a1-2)[GalNAc(a1-3)]Gal(b1-3)GlcNAc(b1-6)GalNAc
# In short: as §1
# [18] = target: Fuc(a1-2)[GalNAc(a1-3)]Gal(b1-4)Glc
# In short: as §1
# [19] = target: Fuc(a1-2)[GalNAc(a1-3)]Gal(b1-4)GlcNAc
# In short: as §1
# [20] = target: Fuc(a1-2)[GalNAc(a1-3)]Gal(b1-4)GlcNAc(b1-2)Man
# In short: as §1
# [21] = target: Fuc(a1-2)[GalNAc(a1-3)]Gal(b1-4)GlcNAc(b1-2)Man(a1-3)[Fuc(a1-2)[GalNAc(a1-3)]Gal(b1-4)GlcNAc(b1-2)Man(a1-6)]Man(b1-4)GlcNAc(b1-4)GlcNAc
# In short: as §1
# [22] = target: Fuc(a1-2)[GalNAc(a1-3)]Gal(b1-4)GlcNAc(b1-2)Man(a1-3)[Fuc(a1-2)[GalNAc(a1-3)]Gal(b1-4)GlcNAc(b1-2)Man(a1-6)]Man(b1-4)GlcNAc(b1-4)[Fuc(a1-6)]GlcNAc
# In short: as §1
# [23] = target: Fuc(a1-2)[GalNAc(a1-3)]Gal(b1-4)GlcNAc(b1-3)Gal(b1-4)GlcNAc
# In short: as §1
# [24] = target: Fuc(a1-2)[GalNAc(a1-3)]Gal(b1-4)GlcNAc(b1-3)Gal(b1-4)GlcNAc(b1-3)Gal(b1-4)GlcNAc
# In short: as §1
# [25] = target: Fuc(a1-2)[GalNAc(a1-3)]Gal(b1-4)GlcNAc(b1-3)GalNAc
# In short: as §1
# [26] = target: Fuc(a1-2)[GalNAc(a1-3)]Gal(b1-4)GlcNAc(b1-3)[Fuc(a1-2)[GalNAc(a1-3)]Gal(b1-4)GlcNAc(b1-6)]GalNAc
# In short: as §1
# [27] = target: Fuc(a1-2)[GalNAc(a1-3)]Gal(b1-4)GlcNAc(b1-6)GalNAc
# In short: as §1
# [28] = target: Fuc(a1-2)[GalNAc(a1-3)]Gal(b1-4)[Fuc(a1-3)]GlcNAc
# In short: as §1
# [29] = target: Fuc(a1-2)[GalNAc(a1-3)]Gal(b1-4)[Fuc(a1-3)]GlcNAc(b1-3)GalNAc
# In short: as §1
# [30] = target: Fuc(a1-2)[GalNAc(a1-4)]Gal(b1-4)GlcNAc
# In short: as §1
# [31] = target: Fuc(a1-2)[GalNAc(b1-3)]Gal
# In short: as §1
# [32] = target: Fuc(a1-3)GlcNAc
# In short: as §1
# [33] = target: Fuc(a1-3)[Gal(b1-4)]Glc6S
# In short: as §1
# [34] = target: Fuc(a1-3)[Gal(b1-4)]GlcNAc
# In short: as §1
# [35] = target: Fuc(a1-3)[Gal(b1-4)]GlcNAc(b1-2)Man
# In short: as §1
# [36] = target: Fuc(a1-3)[Gal(b1-4)]GlcNAc(b1-2)Man(a1-3)[Fuc(a1-3)[Gal(b1-4)]GlcNAc(b1-2)Man(a1-6)]Man(b1-4)GlcNAc(b1-4)GlcNAc
# In short: as §1
# [37] = target: Fuc(a1-3)[Gal(b1-4)]GlcNAc(b1-2)Man(a1-3)[Fuc(a1-3)[Gal(b1-4)]GlcNAc(b1-2)Man(a1-6)]Man(b1-4)GlcNAc(b1-4)[Fuc(a1-6)]GlcNAc
# In short: as §1
# [38] = target: Fuc(a1-3)[Gal(b1-4)]GlcNAc(b1-3)Gal(b1-3)[Fuc(a1-4)]GlcNAc
# In short: as §1
# [39] = target: Fuc(a1-3)[Gal(b1-4)]GlcNAc(b1-3)Gal(b1-4)[Fuc(a1-3)]GlcNAc
# In short: as §1
# [40] = target: Fuc(a1-3)[Gal(b1-4)]GlcNAc(b1-3)Gal(b1-4)[Fuc(a1-3)]GlcNAc(b1-3)Gal(b1-4)[Fuc(a1-3)]GlcNAc
# In short: as §1
# [41] = target: Fuc(a1-3)[Gal(b1-4)]GlcNAc(b1-3)GalNAc
# In short: as §1
# [42] = target: Fuc(a1-3)[Gal(b1-4)]GlcNAc(b1-6)GalNAc
# In short: as §1
# [43] = target: Fuc(a1-3)[Gal(b1-4)]GlcNAc(b1-6)[Gal(b1-3)GlcNAc(b1-3)]Gal(b1-4)Glc
# In short: as §1
# [44] = target: Fuc(a1-3)[Gal(b1-4)]GlcNAc6S
# In short: as §1
# [45] = target: Fuc(a1-3)[Gal3S(b1-4)]Glc
# In short: as §1
binder,measurement,setting,value
"XTP3-B-MRH1 (Homo sapiens), Q96DZ1 (protein) LLEPLFKQSSCSYRIESYWTYEVCHGKHIRQYHEEKETGQKINIHEYYLGNMLAKNLLFEKEREAEEKEKSNEIPTKNIEGQMTPYYPVGMGNGTPCSLKQNRPRSSTVMYICHPESKHEILSVAEVTTCEYEVVILTPLLCSHPKYRFRA",glycan array binding signal (z-score),[1],1.12
same,glycan array binding signal (z-score),[2],-1.42
same,glycan array binding signal (z-score),[3],-0.369
same,glycan array binding signal (z-score),[4],0.358
same,glycan array binding signal (z-score),[5],-1.51
same,glycan array binding signal (z-score),[6],0.04
same,glycan array binding signal (z-score),[7],0.588
same,glycan array binding signal (z-score),[8],-1.99
same,glycan array binding signal (z-score),[9],-0.021
same,glycan array binding signal (z-score),[10],-0.414
same,glycan array binding signal (z-score),[11],-1.23
same,glycan array binding signal (z-score),[12],-0.49
same,glycan array binding signal (z-score),[13],0.263
same,glycan array binding signal (z-score),[14],-0.282
same,glycan array binding signal (z-score),[15],-0.42
same,glycan array binding signal (z-score),[16],-1.53
same,glycan array binding signal (z-score),[17],-0.635
same,glycan array binding signal (z-score),[18],-0.351
same,glycan array binding signal (z-score),[19],-0.97
same,glycan array binding signal (z-score),[20],-1.18
same,glycan array binding signal (z-score),[21],-0.141
same,glycan array binding signal (z-score),[22],0.076
same,glycan array binding signal (z-score),[23],0.081
same,glycan array binding signal (z-score),[24],-0.886
same,glycan array binding signal (z-score),[25],-1.07
same,glycan array binding signal (z-score),[26],-1.21
same,glycan array binding signal (z-score),[27],-0.199
same,glycan array binding signal (z-score),[28],-0.718
same,glycan array binding signal (z-score),[29],0.398
same,glycan array binding signal (z-score),[30],0.488
same,glycan array binding signal (z-score),[31],-1.01
same,glycan array binding signal (z-score),[32],-0.339
same,glycan array binding signal (z-score),[33],-0.886
same,glycan array binding signal (z-score),[34],0.765
same,glycan array binding signal (z-score),[35],-1.12
same,glycan array binding signal (z-score),[36],-1.59
same,glycan array binding signal (z-score),[37],-1.27
same,glycan array binding signal (z-score),[38],-0.511
same,glycan array binding signal (z-score),[39],4.25
same,glycan array binding signal (z-score),[40],0.112
same,glycan array binding signal (z-score),[41],-0.791
same,glycan array binding signal (z-score),[42],-0.152
same,glycan array binding signal (z-score),[43],-0.583
same,glycan array binding signal (z-score),[44],-0.311
same,glycan array binding signal (z-score),[45],1.58

# Fetched one by one from the entries so far (two):
binder,measurement,setting,value
"XTP3-B-MRH1 (Homo sapiens), Q96DZ1 (protein) LLEPLFKQSSCSYRIESYWTYEVCHGKHIRQYHEEKETGQKINIHEYYLGNMLAKNLLFEKEREAEEKEKSNEIPTKNIEGQMTPYYPVGMGNGTPCSLKQNRPRSSTVMYICHPESKHEILSVAEVTTCEYEVVILTPLLCSHPKYRFRA",glycan array binding signal (z-score),[38],-0.511
same,glycan array binding signal (z-score),[25],-1.07
